# Experimental data published in PubChem BioAssay AID540276 (National Center for Advancing Translational Sciences (NCATS), 2011).
# About 5,400 (1.8%) of roughly 300,000 compounds were called active. The inconclusive results got no clear call from the source; some entries with a clear call stand among them for comparison. The call rests on the fitted dose curve; tested in HEK293 cells. Where the call is inconclusive, the potency comes from a doubtful curve fit.
# Assay: qHTS for inhibitors of binding or entry into cells for Marburg Virus
# Settings: Marburg virus pseudotyped entry inhibition, cell reporter; activity change, negative = inhibition: at 37.8 µM (top of the series) unless noted
# On the % scale 0 is the no-effect control and ±100 the full control effect; potency means the concentration at half of the fitted maximal effect.
Structure (SMILES),Potency,"activity change, negative = inhibition"
c1cncc(-c2nc(NCCCN3CCOCC3)c3c4c(sc3n2)CCC4)c1,active: 10 µM,–
Cc1cccc(NC(=O)CSc2nnc(CSc3nc(C)cc(C)n3)o2)c1,"inconclusive: 1.58 µM [activator, partial curve]",–
CSc1ccccc1NC(=O)CN(C)Cc1cccc(Cl)c1,"inconclusive: 1 µM [inhibitor, full curve]",–
Cc1cnc(C(=O)OCC(=O)c2ccc(F)cc2)cn1,"inconclusive: 0.794 µM [inhibitor, single point]",–
CC(=O)N(C)c1ccc(NC(=S)Nc2cccc3ccccc23)cc1,"inconclusive: 3.55 µM [activator, single point]",–
CN(C)C(CNC(=O)CCc1nc2ccccc2s1)c1ccccc1 (centres undefined),"inconclusive: 35.5 µM [inhibitor, single point]",–
O=C(Cn1c(C(=O)N2CCc3ccccc3C2)cc2sccc21)c1ccccc1,inactive,–
CN1CCN(c2nc3ccccn3c(=O)c2C=C2C(=O)N(C)C(=O)N(C)C2=O)CC1,–,inconclusive: 21.7% [activator]
Cc1nc(N)[nH]c(=O)c1CCCNc1ccc(CCCCC2(CCl)OCCO2)cc1,"inconclusive: 11.2 µM [inhibitor, partial curve, poor fit]",–
O=C(Nc1ccc([N+](=O)[O-])cc1)C(Cc1ccccc1)N1C(=O)c2cccc3cccc(c23)C1=O (centres undefined),inactive,–
COc1ccc(NC(=O)C(CCSC)N2C(=O)c3ccccc3C2=O)cc1 (centres undefined),"inconclusive: 1.83 µM [inhibitor, partial curve]",–
COc1ccc(CNC(=O)C(OC(=O)c2cccs2)C(C)C)cc1 (centres undefined),"inconclusive: 3.16 µM [inhibitor, partial curve, poor fit]",–
COc1cccc(NC(=O)N2CCc3ccccc3C2)c1,inactive,–
CC1=C(C(=O)OC2CCCC2)C(c2ccccc2C(F)(F)F)CC(=O)N1 (centres undefined),"inconclusive: 10 µM [inhibitor, partial curve, poor fit]",–
O=C(CSc1ccccn1)N/N=C/c1cccc([N+](=O)[O-])c1,"inconclusive: 3.16 µM [inhibitor, single point]",–
N#C/C(=C\c1ccc(N2CCOCC2)o1)C(=O)N1CCOCC1,"inconclusive: 0.794 µM [activator, partial curve, poor fit]",–
Cc1ccc(N(CC(=O)Nc2ccc(C)c(Cl)c2)S(=O)(=O)c2cccs2)cc1,inactive,–
COc1ccc(OC)c(C2C(C(C)=O)=C(C)Nc3ncnn32)c1 (centres undefined),"inconclusive: 5.01 µM [activator, partial curve, poor fit]",–
Cc1cccn2c(CN(C)CC3CCCCO3)c(C(=O)N3CCCCC3)nc12 (centres undefined),"inconclusive: 0.891 µM [inhibitor, full curve, poor fit]",–
Cc1ccc(NC(=O)COC(=O)c2ccc3c(c2)OCO3)cc1S(=O)(=O)N1CCCCC1,inactive,–
NO,"inconclusive: 6.51 µM [activator, single point]",–
O=C(Nc1nccs1)C1CC(=O)N(CCc2ccccc2)C1 (centres undefined),inactive,–
O=C(Cc1ccc(F)cc1)Nc1c2c(nn1-c1cccc(Cl)c1)CS(=O)C2 (centres undefined),"inconclusive: 0.631 µM [inhibitor, full curve, poor fit]",–

# In the list so far, 13 have sulfur:
Structure (SMILES),Potency,"activity change, negative = inhibition"
c1cncc(-c2nc(NCCCN3CCOCC3)c3c4c(sc3n2)CCC4)c1,active: 10 µM,–
Cc1cccc(NC(=O)CSc2nnc(CSc3nc(C)cc(C)n3)o2)c1,"inconclusive: 1.58 µM [activator, partial curve]",–
CSc1ccccc1NC(=O)CN(C)Cc1cccc(Cl)c1,"inconclusive: 1 µM [inhibitor, full curve]",–
CC(=O)N(C)c1ccc(NC(=S)Nc2cccc3ccccc23)cc1,"inconclusive: 3.55 µM [activator, single point]",–
CN(C)C(CNC(=O)CCc1nc2ccccc2s1)c1ccccc1 (centres undefined),"inconclusive: 35.5 µM [inhibitor, single point]",–
O=C(Cn1c(C(=O)N2CCc3ccccc3C2)cc2sccc21)c1ccccc1,inactive,–
COc1ccc(NC(=O)C(CCSC)N2C(=O)c3ccccc3C2=O)cc1 (centres undefined),"inconclusive: 1.83 µM [inhibitor, partial curve]",–
COc1ccc(CNC(=O)C(OC(=O)c2cccs2)C(C)C)cc1 (centres undefined),"inconclusive: 3.16 µM [inhibitor, partial curve, poor fit]",–
O=C(CSc1ccccn1)N/N=C/c1cccc([N+](=O)[O-])c1,"inconclusive: 3.16 µM [inhibitor, single point]",–
Cc1ccc(N(CC(=O)Nc2ccc(C)c(Cl)c2)S(=O)(=O)c2cccs2)cc1,inactive,–
Cc1ccc(NC(=O)COC(=O)c2ccc3c(c2)OCO3)cc1S(=O)(=O)N1CCCCC1,inactive,–
O=C(Nc1nccs1)C1CC(=O)N(CCc2ccccc2)C1 (centres undefined),inactive,–
O=C(Cc1ccc(F)cc1)Nc1c2c(nn1-c1cccc(Cl)c1)CS(=O)C2 (centres undefined),"inconclusive: 0.631 µM [inhibitor, full curve, poor fit]",–

# One compound at a time, as listed above. Order of values: Potency | activity change, negative = inhibition
# CN(C)C(CNC(=O)CCc1nc2ccccc2s1)c1ccccc1 (centres undefined) as listed: inconclusive: 35.5 µM [inhibitor, single point] | –
# N#C/C(=C\c1ccc(N2CCOCC2)o1)C(=O)N1CCOCC1 as listed: inconclusive: 0.794 µM [activator, partial curve, poor fit] | –

# Going on with the list.

Structure (SMILES),Potency,"activity change, negative = inhibition"
COc1cccc(C(=O)Nc2ccc(N3CCN(S(C)(=O)=O)CC3)cc2)c1,inactive,–
COc1ccc(/C=N/n2c(N)c(S(=O)(=O)c3cccs3)c3nc4ccccc4nc32)cc1OC,"inconclusive: 14.6 µM [inhibitor, partial curve, poor fit]",–
CCOc1ccc(-c2[nH]nc3c2C(c2ccc4c(c2)OCO4)C(C#N)=C(N)O3)cc1OC (centres undefined),"inconclusive: 6.31 µM [activator, single point]",–
Cc1c(NS(=O)(=O)c2cccc(C(=O)OCC(=O)c3ccc(Cl)cc3)c2)c(=O)n(-c2ccccc2)n1C,inactive,–
Cc1ccccc1CSCC(=O)Nc1ccccc1F,"inconclusive: 1.12 µM [activator, full curve, poor fit]",–
COc1ccc(C(=O)/C=C/Nc2ccc([N+](=O)[O-])cc2)cc1,inactive,–
Cc1cccc(C(=O)O/N=C(\N)CS(=O)(=O)c2ccccc2)c1,inactive,–
O=[N+]([O-])c1ccccc1S(=O)(=O)Nc1cccc2cccnc12,"inconclusive: 22.4 µM [inhibitor, partial curve, poor fit]",–
C=CC(=O)Nc1cccc(Oc2ccnc(Nc3ccc(N4CCN(C)CC4)cc3)n2)c1,inactive,–
CCCCOc1ccc(NC(=O)C(=O)NCCCn2ccnc2)cc1,"inconclusive: 1 µM [activator, full curve, poor fit]",–
CCOC(=O)N1CCN(C(=O)CSC2=NS(=O)(=O)c3ccccc3N2)CC1,inactive,–
Cn1c(SCc2ccccc2)nc2ccsc2c1=O,"inconclusive: 10 µM [inhibitor, partial curve]",–
CCOc1ccc(-n2nc3c(=S)[nH]nc(C)c3c2C)cc1,"inconclusive: 31.6 µM [inhibitor, partial curve, poor fit]",–
COc1cccc(NC(=O)CSc2nnc(Cc3ccc(OC)c(OC)c3)o2)c1,"inconclusive: 10 µM [inhibitor, single point]",–
COc1cccc(C(=O)N/N=C(/c2ccccc2)c2ccccn2)c1,"inconclusive: 8.91 µM [inhibitor, partial curve, poor fit]",–
O=C(Nc1ccc(N2CCN(C(=O)c3cccs3)CC2)cc1)c1ccc(F)cc1,"inconclusive: 0.562 µM [inhibitor, full curve, poor fit]",–
Cc1cccc(CSc2ncccc2C(=O)O)c1,"inconclusive: 5.17 µM [activator, full curve, poor fit]",–
COc1ccc(C(=O)N2CCN(Cc3ccc(OC)c(OC)c3)CC2)cc1,inactive,–
COc1cccc(CNCCN2CCOCC2)c1OC,inactive,–
COc1ccc(OC)c(C2CC(c3ccc(NS(C)(=O)=O)cc3)=NN2C(=O)c2ccccc2)c1 (centres undefined),"inconclusive: 4.61 µM [inhibitor, partial curve, poor fit]",–
O=C(Nc1ccccc1-c1nc2ccccc2s1)c1ccc(Br)o1,"inconclusive: 7.3 µM [inhibitor, partial curve]",–
CC1CCCCN1S(=O)(=O)c1ccc(S(=O)(=O)NCCc2ccncc2)cc1 (centres undefined),"inconclusive: 16.4 µM [inhibitor, single point]",–
CCCC(=O)Nn1cnc2c(c1=O)C1(CCCC1)Cc1ccccc1-2,inactive,–

Structure (SMILES),Potency,"activity change, negative = inhibition"
O=C1N(Cc2ccccc2)c2ccccc2C1(O)c1c[nH]c2ccccc12 (centres undefined),inactive,–
Cc1ccc(NC(=O)C2CCCN2S(=O)(=O)c2ccc3c(c2)n(C)c(=O)c(=O)n3C)cc1C (centres undefined),"inconclusive: 10 µM [inhibitor, partial curve, poor fit]",–
CCOc1ccccc1N1CCN(Cc2cnc(-c3ccccc3)[nH]2)CC1,"inconclusive: 14.1 µM [inhibitor, single point]",–
COc1ccc(CC(C#N)(CO)c2nc3ccccc3[nH]2)cc1 (centres undefined),"inconclusive: 35.5 µM [inhibitor, single point]",–
O=c1[nH]c2ccccc2n1CCCN1CCN(C(c2ccccc2)c2ccccc2)CC1,active: 12.6 µM,–
COc1cc(-c2nnc(SCC(=O)c3ccc(C)cc3)o2)cc(OC)c1OC,inactive,–
CC1(C)O[C@@H]2[C@@H](O1)C(c1ccccc1)(c1ccccc1)OP(=O)(O)OC2(c1ccccc1)c1ccccc1,"inconclusive: 1.33 µM [inhibitor, single point]",–
CCCC(=O)OCC(=O)Nc1cc(C(C)(C)C)nn1-c1ccccc1,–,inconclusive: 32.2% [activator] [at 46.1 µM]
O=[N+]([O-])c1cc(S(=O)(=O)N2CCOCC2)ccc1OCc1ccccc1C(F)(F)F,"inconclusive: 1.26 µM [activator, single point]",–
COC(/C=C/Nc1ccc(OC)cc1)=C(C#N)C#N,inactive,–
CCC(C)NCCOCCSc1ccc(Cl)cc1 (centres undefined),"inconclusive: 29.1 µM [inhibitor, single point]",–
O=C(CCl)NCCCCCCCCCNC(=O)CCl,active: 8.91 µM,–
CN(CC(=O)Nc1ccc(F)cc1)C(=O)CN1C(=O)c2cccc([N+](=O)[O-])c2C1=O,inactive,–
COc1ccc2c(c1)C13CCCCC1C(C2)N(C)CC3 (centres undefined),active: 11.2 µM,–
c1cc[n+](CCC[n+]2ccccc2)cc1,inactive,–
Cn1nc(C2CC2)cc1NC(=O)CC(CC(=O)O)c1ccccc1 (centres undefined),"inconclusive: 6.31 µM [inhibitor, single point]",–
CN(Cc1ccc(Cl)cc1Cl)C(=O)c1cccc(S(=O)(=O)N2CCN(c3ccccc3)CC2)c1,"inconclusive: 22.4 µM [inhibitor, single point]",–
COc1ccc(N(C(=O)c2snc(C(N)=O)c2N)C(C(=O)NC2CCCC2)c2ccc(C)o2)c(OC)c1 (centres undefined),"inconclusive: 11.2 µM [inhibitor, partial curve, poor fit]",–
CC(C)(Oc1ccc(Cl)cc1)C(=O)NC1CC1,"inconclusive: 35.5 µM [activator, partial curve, poor fit]",–
Cn1c(CNC(=O)c2cccs2)nnc1SCC(=O)Nc1ccccc1,"inconclusive: 1.26 µM [inhibitor, single point]",–
O=C(CCc1ccc(S(=O)(=O)N2CCOCC2)cc1)N/N=C/c1ccc(O)c(O)c1O,inactive,–
Cc1ccc(C(=O)c2oc3ccccc3c2NC(=O)Cc2ccccc2)cc1,"inconclusive: 1.41 µM [inhibitor, partial curve, poor fit]",–
CCCCn1c(=N)n(CCOc2ccccc2OC)c2ccccc21,"inconclusive: 10 µM [inhibitor, partial curve, poor fit]",–
